# Test results: US20010036654A1
# No constants are given. Whether binding was seen depends on the method and setting. Some entries that bind do so weakly or less than the wild type.
# Target: wheat (Triticum aestivum) acetyl-CoA carboxylase, 220-kDa biotinylated polypeptide (wheat (Triticum aestivum))
# Experiment: Western blot of leaf, chloroplast and wheat germ proteins probed with 35S-streptavidin
substance,measurement,value
streptavidin (from UniProt P22629 37-163),binding,binds
